Measurements as given in article PMC9788829.

Target: recombinant CLEC-2 carbohydrate-recognition domain (CRD)
Experiment: SPR; BIACORE T-200; recombinant CLEC-2 CRD immobilised through amine coupling to a CM5 sensor chip; (glyco)peptides 0, 3.125, 6.25, 12.5, 25, 50, 100 and 200 μM injected at 30 μl/min; both purified

## SSLEDSVTPTK (disialyl-core 1 O-glycan on T105: NeuAcα2-3Galβ1-3(NeuAcα2–6)GalNAcα1-O-T105) [O-glycosylated hDectin-1 peptide S98-K108 with disialyl-core 1 O-glycan on T105]
  binding: binds

Results are given in words; binding and its absence hold for the method and conditions named. Binding can be weak; no strength is given.
